Data from PubChem BioAssay AID256 (DTP/NCI, 2004).
The list shows only some results of the screen, not a fair sample: it is rich in T/C values a quarter to a half above the control, in often repeated tests (any T/C) and in doses without a T/C. Other doses and runs of a compound stand elsewhere. T/C is the treated group as % of the vehicle group. Some entries give survivors of the animals treated and no T/C: the source files T/C as zero there, which appears to mark a toxic dose or a test without result, not a measured value. Some survivor counts are full or nearly so, which does not show that the dose was tolerated: the source hardly ever lists a survival T/C far under the control, and the zero likely stands for such cases as well. Counts of survivors are from the toxicity check (mostly the fifth day) where no day follows; animals may have died later. Schedules are NCI's codes, taken here to give the interval after Q, in days (D) or hours (H), and the number of doses after X. For survival time, the PubChem record calls one and a half times the control and up active, and a quarter to a half above the control has no call in these data; cut-offs in other NCI protocols can differ.

System: CD2F1 mice, L1210 leukemia ip, survival T/C
Assay: NCI In Vivo Anticancer Drug Screen. Data for tumor model L1210 Leukemia (intraperitoneal) in CD2F1 (CDF1) mice
Settings: higher T/C = longer survival
In short: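 Tumor-bearing mice (transplanted tumor) were split into treated and vehicle control groups, and the measured endpoint of each treated group was divided by that of its vehicle controls.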

[1] = T/C endpoint: mean survival time, dose: 200.0 mg/kg/injection, schedule: Q01DX009 (ip), vehicle: saline with Tween-80

In the case of CN(C)Cc1cc(OCc2ccccc2)cc(CN(C)C)c1O, the survivor count (T/C endpoint: mean survival time, dose: 150.0 mg/kg/injection, schedule: Q01DX001 (ip), vehicle: saline) is reported as 0 of 6 and the survivor count (T/C endpoint: mean survival time, dose: 300.0 mg/kg/injection, schedule: Q01DX001 (ip), vehicle: saline) is reported as 0 of 6.

Nc1ccn(C2CC(CO)C(O)C2O)c(=O)n1 (configuration not stated) was tested, and the T/C (T/C endpoint: mean survival time, dose: 67.0 mg/kg/injection, schedule: Q01DX009 (ip), vehicle: saline) was 140 % of control.

With CCCCCn1c(C)cc(/C=C\c2ccc3cc(C)ccc3[n+]2C)c1C the survivor count (T/C endpoint: mean survival time, dose: 2.5 mg/kg/injection, schedule: Q01DX009 (ip), vehicle: Klucel (hydroxypropylcellulose) (HPC)) was 2 of 6, the survivor count (T/C endpoint: mean survival time, dose: 5.0 mg/kg/injection, schedule: Q01DX009 (ip), vehicle: Klucel (hydroxypropylcellulose) (HPC)) was 0 of 6 and the survivor count (T/C endpoint: mean survival time, dose: 10.0 mg/kg/injection, schedule: Q01DX009 (ip), vehicle: Klucel (hydroxypropylcellulose) (HPC)) was 0 of 6. The survivor count (T/C endpoint: mean survival time, dose: 20.0 mg/kg/injection, schedule: Q01DX009 (ip), vehicle: Klucel (hydroxypropylcellulose) (HPC)) was 0 of 6.

For CC1(C)OC2C(/C=C\C(=O)c3ccccc3)OC(n3ccc(=O)[nH]c3=O)C2O1 (configuration not stated), the survivor count (T/C endpoint: mean survival time, dose: 200.0 mg/kg/injection, schedule: Q01DX005 (ip), vehicle: distilled water + Tween-80) was 1 of 6.

With COc1cc2c[n+](C)c3c(c2cc1OC)Cc1cc2c(cc1-3)OCO2 the T/C (T/C endpoint: median survival time, dose: 6.25 mg/kg/injection, schedule: Q01DX009 (ip), vehicle: saline with Tween-80) was 141 % of control, the T/C (T/C endpoint: median survival time, dose: 12.0 mg/kg/injection, schedule: Q01DX009 (ip), vehicle: saline with Tween-80) was 138 % of control and the T/C (T/C endpoint: median survival time, dose: 12.5 mg/kg/injection, schedule: Q01DX009 (ip), vehicle: saline with Tween-80) was 144 % of control. For the same compound, the survivor count (T/C endpoint: median survival time, dose: 100.0 mg/kg/injection, schedule: Q01DX009 (ip), vehicle: saline with Tween-80) was 6 of 6.

With [Cl][Pt+2][Cl].[NH-]c1ccccc1-c1ccccc1[NH-] the survivor count (T/C endpoint: mean survival time, dose: 200.0 mg/kg/injection, schedule: Q04DX003 (ip), vehicle: saline) was 1 of 6.

For CC(=O)c1ccco1, the survivor count (T/C endpoint: mean survival time, dose: 100.0 mg/kg/injection, schedule: Q04DX003 (ip), vehicle: saline with Tween-80) was 0 of 6.

With O=C(O/N=C(\C(=O)c1ccccc1)c1ccccc1)c1ccc(Br)cc1 the survivor count (T/C endpoint: mean survival time, dose: 400.0 mg/kg/injection, schedule: Q01DX001 (ip), vehicle: saline with Tween-80) was 6 of 6.

For CC1OC(=O)C2(C(C)C)CC12 (configuration not stated), the survivor count (T/C endpoint: mean survival time, dose: 38.0 mg/kg/injection, schedule: Q01DX001 (ip), vehicle: other) was 0 of 6, the survivor count (T/C endpoint: mean survival time, dose: 75.0 mg/kg/injection, schedule: Q01DX001 (ip), vehicle: other) was 0 of 6 and the survivor count (T/C endpoint: mean survival time, dose: 150.0 mg/kg/injection, schedule: Q01DX001 (ip), vehicle: other) was 0 of 6. For the same compound, the survivor count (T/C endpoint: mean survival time, dose: 300.0 mg/kg/injection, schedule: Q01DX001 (ip), vehicle: other) was 0 of 6.

With CN(C)N=Nc1ccc(Cl)cc1 the survivor count (T/C endpoint: mean survival time, dose: 177.0 mg/kg/injection, schedule: Q01DX009 (ip), vehicle: Klucel (hydroxypropylcellulose) (HPC)) was 4 of 6, the survivor count (T/C endpoint: mean survival time, dose: 266.0 mg/kg/injection, schedule: Q01DX009 (ip), vehicle: Klucel (hydroxypropylcellulose) (HPC)) was 0 of 6 and the survivor count (T/C endpoint: mean survival time, dose: 400.0 mg/kg/injection, schedule: Q01DX009 (ip), vehicle: Klucel (hydroxypropylcellulose) (HPC)) was 0 of 6.

O=C1CN(Cc2ccc3c(c2)OCO3)NO1 was tested, and the T/C (T/C endpoint: mean survival time, dose: 50.0 mg/kg/injection, schedule: Q01DX009 (ip), vehicle: saline with Tween-80) was 133 % of control, the T/C [1] was 129 % of control and the survivor count [1] was 6 of 6.

For O=c1oc(-c2cccc([N+](=O)[O-])c2)nc2ccccc12, the survivor count (T/C endpoint: mean survival time, dose: 400.0 mg/kg/injection, schedule: Q04DX003 (ip), vehicle: saline with Tween-80) was 0 of 6.

For O=C/C=C/c1ccc([N+](=O)[O-])cc1, the survivor count (T/C endpoint: mean survival time, dose: 400.0 mg/kg/injection, schedule: Q04DX003 (ip), vehicle: Klucel (hydroxypropylcellulose) (HPC)) was 6 of 6.

In the case of C=CC1CCCCC1C=C (configuration not stated), the survivor count (T/C endpoint: mean survival time, dose: 100.0 mg/kg/injection, schedule: Q01DX009 (ip), vehicle: saline with Tween-80) is reported as 3 of 6, the survivor count [1] is reported as 0 of 6 and the survivor count (T/C endpoint: mean survival time, dose: 400.0 mg/kg/injection, schedule: Q01DX009 (ip), vehicle: saline with Tween-80) is reported as 2 of 6.

In the case of OCCOc1ccc2ccccc2c1-c1c(OCCOc2ccc3ccccc3c2-c2c(OCCO)ccc3ccccc23)ccc2ccccc12, the survivor count (T/C endpoint: mean survival time, dose: 100.0 mg/kg/injection, schedule: Q01DX001 (ip), vehicle: saline with Tween-80) is reported as 3 of 3 and the survivor count (T/C endpoint: mean survival time, dose: 200.0 mg/kg/injection, schedule: Q01DX001 (ip), vehicle: saline with Tween-80) is reported as 3 of 3.
